Measured values published in the supplement of paper PMC11060735.
Several values for one entry are separate records, joined by “and”; a condition that tells them apart may be missing. Equal entries are not always repeated. Structures can show the parent of a compound that is named as a salt. ± gives the standard deviation of the averaged measurements. Whole data set: some 1,800 compounds, median “GFP- (p16Ink4a-) cell count relative to negative-control wells” near 0.99, cut for the lowest 2% near 0.5. The list shows a part of the results.

test system: mouse p16Ink4a+/- lung fibroblasts (INKBRITE, bleomycin-injured); assay: GFP- (p16Ink4a-) cell count relative to negative-control wells (fold of vehicle); higher = more p16Ink4a- cells surviving; conditions: 1 µM; 3 days

**Q.** `Cc1[nH]c(/C=C2\C(=O)Nc3ccccc32)c(C)c1CCC(=O)O` [Orantinib] was tested. Which GFP- did it give?
**A.** 1.09

**Q.** With `Cc1oncc1C(=O)Nc1ccc(C(F)(F)F)cc1` [Lefunamide, Leflunomide] as the compound, how does the GFP- read?
**A.** 1.11

**Q.** `C[C@@H]1C[C@H]2[C@@H]3CCC4=CC(=O)C=C[C@]4(C)[C@@]3(F)[C@@H](O)C[C@]2(C)[C@@]1(O)C(=O)CO` [Dexamethasone] was tested. Which GFP- did it give?
**A.** 1.1

**Q.** `CCC(=O)Nc1cccc(Oc2nc(Nc3ccc(N4CCN(C)CC4)cc3OC)ncc2Cl)c1` was tested. Which GFP- did it give?
**A.** 1.15

**Q.** How did the GFP- turn out when `C/C(=N\NC(=S)N1CCC1)c1ccccn1` was run?
**A.** 0.4

**Q.** With `CCCCCCNC(=O)n1cc(F)c(=O)[nH]c1=O` [Carmofur] as the compound, how does the GFP- read?
**A.** 0.702

**Q.** How did the GFP- turn out when `C[C@H](NCc1ccc(OCc2cccc(F)c2)cc1)C(N)=O` [Safinamide] was run?
**A.** 1.06

**Q.** `C[C@@]1(c2cc(-c3cncnc3)c(F)cc2F)CCSC(N)=N1` was tested. Which GFP- did it give?
**A.** 1.06

**Q.** With `Nc1nc(N)c2nc(-c3ccccc3)c(N)nc2n1` [Triamterene] as the compound, how does the GFP- read?
**A.** 1.06

**Q.** How did the GFP- turn out when `O=C1NCCc2[nH]c(-c3ccncc3)cc21` was run?
**A.** 0.999

**Q.** For `Cn1c(=O)c(F)c(Nc2ccc(I)cc2F)c2c(=O)n(C[C@@H](O)CO)cnc21`, which GFP- is on record?
**A.** 0.862

**Q.** How did the GFP- turn out when `Cc1cccc(N(C)C(=S)Oc2ccc3ccccc3c2)c1` [Tolnaftate] was run?
**A.** 0.981

**Q.** For `C[C@H]1C[C@H]2[C@@H]3CCC4=CC(=O)C=C[C@]4(C)[C@@]3(F)[C@@H](O)C[C@]2(C)[C@@]1(O)C(=O)CO` [Betamethasone], which GFP- is on record?
**A.** 1.06

**Q.** For `C[C@@H](O[C@H]1OCCN(Cc2n[nH]c(O)n2)[C@H]1c1ccc(F)cc1)c1cc(C(F)(F)F)cc(C(F)(F)F)c1` [Aprepitant], which GFP- is on record?
**A.** 1.06

**Q.** `Oc1ccc(OCc2ccccc2)cc1` [Monobenzone] was tested. Which GFP- did it give?
**A.** 0.704

**Q.** Which GFP- does the source give for `Nc1ccc(O)c(C(=O)O)c1` [Mesalazine] here?
**A.** 0.815

**Q.** Which GFP- does the source give for `O=c1ncccn1[C@@H]1O[C@H](CO)[C@H](O)C1O` (some centres undefined) [Zebularine] here?
**A.** 1.01 ± 0.07

**Q.** How did the GFP- turn out when `COc1cc(-c2cc3ccccc3[nH]2)[nH]c1/C=C1\N=C(C)C=C1C` [Obatoclax Mesylate] was run?
**A.** 0.249

**Q.** How did the GFP- turn out when `CC(C)(Oc1ccc(CCNC(=O)c2ccc(Cl)cc2)cc1)C(=O)O` [Bezafibrate] was run?
**A.** 1.2

**Q.** Which GFP- does the source give for `C[C@@H](O[C@H]1OCCN(Cc2nc(O)n(P(=O)(O)O)n2)[C@H]1c1ccc(F)cc1)c1cc(C(F)(F)F)cc(C(F)(F)F)c1` [Fosaprepitant] here?
**A.** 0.943

**Q.** How did the GFP- turn out when `Cc1cc2c(F)c(Oc3ncnn4cc(OC[C@@H](C)OC(=O)[C@H](C)N)c(C)c34)ccc2[nH]1` [Brivanib Alaninate] was run?
**A.** 0.978

**Q.** Which GFP- does the source give for `C=C1/C(=C/C=C2/CCC[C@]3(C)[C@@H]([C@H](C)CCCC(C)C)CC[C@@H]23)C[C@@H](O)C[C@@H]1O` [Alfacalcidol] here?
**A.** 1.3

**Q.** With `C[C@]12CC[C@@H]3c4ccc(O)cc4CC[C@H]3[C@@H]1C[C@@H](O)[C@@H]2O` [Estriol] as the compound, how does the GFP- read?
**A.** 0.927

**Q.** With `C[C@H]1[C@H](C)C[C@@H](C(=O)O)C2CC[C@]3(C)C(=CC[C@@H]4[C@@]5(C)CC[C@H](O)C(C)(C)[C@@H]5CC[C@]43C)[C@@H]21` (some centres undefined) [Ursolic Acid] as the compound, how does the GFP- read?
**A.** 1.05

**Q.** For `CN(C)CCOc1ccc(-c2nc(-c3ccc4c(c3)CC/C4=N\O)c(-c3ccncc3)[nH]2)cc1`, which GFP- is on record?
**A.** 1.23

**Q.** With `CN(C)[C@@H](CCOc1cccc2ccccc12)c1ccccc1` [Dapoxetine] as the compound, how does the GFP- read?
**A.** 1.12

**Q.** `CCCSc1ccc2[nH]c(NC(=O)OC)nc2c1` [Albendazole] was tested. Which GFP- did it give?
**A.** 0.802

**Q.** With `NS(=O)(=O)c1cc(Cl)c(Cl)c(S(N)(=O)=O)c1` [Diclofenamide] as the compound, how does the GFP- read?
**A.** 0.918

**Q.** `CCc1ccc(CCOc2ccc(CC3SC(=O)NC3=O)cc2)nc1` (centres undefined) [Pioglitazone] was tested. Which GFP- did it give?
**A.** 1.05 and 1.1

**Q.** Which GFP- does the source give for `Cc1ccc(NC(=O)c2ccc(CN3CCN(C)CC3)cc2)cc1Nc1nccc(-c2cccnc2)n1` [Imatinib, Imatinib Mesylate] here?
**A.** 1.04 and 0.966

**Q.** For `Nc1ccn([C@H]2CC[C@@H](CO)O2)c(=O)n1` [Zalcitabine], which GFP- is on record?
**A.** 0.961

**Q.** How did the GFP- turn out when `CC(C)CN(C[C@@H](O)[C@H](Cc1ccccc1)NC(=O)O[C@H]1CO[C@H]2OCC[C@H]21)S(=O)(=O)c1ccc(N)cc1` [Darunavir] was run?
**A.** 0.901

**Q.** Which GFP- does the source give for `CNC(=O)c1cc(Oc2ccc(NC(=O)Nc3ccc(Cl)c(C(F)(F)F)c3)c(F)c2)ccn1` [Regorafenib] here?
**A.** 0.977

**Q.** With `O=C(O)Cc1ccccc1Nc1c(Cl)cccc1Cl` [Diclofenac] as the compound, how does the GFP- read?
**A.** 1.1 and 0.997 and 1.08

**Q.** For `N#Cc1ccc(C(c2ccc(C#N)cc2)n2cncn2)cc1` [Letrozole], which GFP- is on record?
**A.** 0.829

**Q.** With `O=C(O)c1ccc(/C=C2/SC(=S)N(c3cccc(C(F)(F)F)c3)C2=O)cc1` as the compound, how does the GFP- read?
**A.** 1.08

**Q.** With `C[C@@H](O)[C@H]1C(=O)N2C(C(=O)OCOC(=O)C(C)(C)C)=C(SC3CN(C4=NCCS4)C3)[C@H](C)[C@H]12` [Tebipenem Pivoxil] as the compound, how does the GFP- read?
**A.** 0.967

**Q.** How did the GFP- turn out when `CN(C)CC(=O)Nc1ccc2nc(O)c3ccccc3c2c1` was run?
**A.** 1.06 ± 0.057

**Q.** With `c1ccc(CN(CC2=NCCN2)c2ccccc2)cc1` [Antazoline] as the compound, how does the GFP- read?
**A.** 0.943

**Q.** Which GFP- does the source give for `Oc1c(Br)cc(Br)c2cccnc12` [Broxyquinoline] here?
**A.** 0.897

**Q.** How did the GFP- turn out when `Nc1ccc2ncnc(NCCc3ccc(Oc4ccccc4)cc3)c2c1` was run?
**A.** 0.942

**Q.** Which GFP- does the source give for `CC(C)(O)[C@H]1CC[C@@](C)([C@H]2[C@@H](O)C[C@@]3(C)[C@@H]4C[C@H](O[C@@H]5O[C@H](CO)[C@@H](O)[C@H](O)[C@H]5O)[C@H]5C(C)(C)[C@@H](O[C@@H]6OC[C@@H](O)[C@H](O)[C@H]6O)CC[C@@]56C[C@@]46CC[C@]23C)O1` [Astragaloside A] here?
**A.** 0.817

**Q.** For `CNC(=O)c1nn(C)c2c1C(C)(C)Cc1cnc(Nc3ccc(N4CCN(C)CC4)cc3)nc1-2` [Milciclib], which GFP- is on record?
**A.** 0.728

**Q.** Which GFP- does the source give for `S=C(NCc1ccc2c(c1)OCO2)N1CCN(c2ncnc3c2oc2ccccc23)CC1` [Amuvatinib] here?
**A.** 1.03

**Q.** For `O=C(CCCCCN1C(=O)c2cccc3cccc(c23)C1=O)NO` [Scriptaid], which GFP- is on record?
**A.** 0.563 ± 0.04

**Q.** How did the GFP- turn out when `COc1ccc2c(c1)c(C1=C(c3c[nH]c4ccccc34)C(=O)NC1=O)cn2CCCN(C)C` was run?
**A.** 0.797

**Q.** With `Cn1cc(CNCC2CCN(c3ncc(C(=O)NO)cn3)CC2)c2ccccc21` [Quisinostat] as the compound, how does the GFP- read?
**A.** 0.522 ± 0.027

**Q.** `Nc1nccc2c1ncn2[C@@H]1C=C(CO)[C@@H](O)[C@H]1O` [3-Deazaneplanocin A (DZNeP)] was tested. Which GFP- did it give?
**A.** 0.833 ± 0.05

**Q.** For `O=[N+]([O-])c1cn2c(n1)OC[C@@H](OCc1ccc(OC(F)(F)F)cc1)C2`, which GFP- is on record?
**A.** 0.911
